Assay results from patent EP0422134B1, “5-HT SELECTIVE AGENTS” (ABBOTT LABORATORIES, priority 1988, dated 1990).
The name of at least one read-out is uncertain.

The chains behind the UniProt entries cited, without tags or fusion partners.
UniProt P28564, whole entry: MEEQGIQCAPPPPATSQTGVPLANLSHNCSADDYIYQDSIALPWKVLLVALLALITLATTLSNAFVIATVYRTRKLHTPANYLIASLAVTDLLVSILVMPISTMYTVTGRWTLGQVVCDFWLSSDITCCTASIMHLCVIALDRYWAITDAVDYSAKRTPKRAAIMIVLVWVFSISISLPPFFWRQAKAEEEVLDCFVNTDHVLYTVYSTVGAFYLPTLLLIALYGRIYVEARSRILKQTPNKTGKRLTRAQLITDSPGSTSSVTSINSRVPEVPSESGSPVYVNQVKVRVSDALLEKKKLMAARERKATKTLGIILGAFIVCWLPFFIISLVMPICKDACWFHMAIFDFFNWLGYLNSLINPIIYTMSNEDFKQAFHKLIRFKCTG

Legend:
[1] = molecular target: 5-HT1; test: Radioligand binding, tritiated 5-HT, rat frontal cortex homogenate (total 5-HT1); details: displacement of tritiated 5-HT
Protocol: Male Sprague-Dawley rats (150-200 g) were sacrificed and the brains were rapidly removed and placed on ice. The frontal cortext, including the portion immediately above the striatum and part of the parietal cortex were dissected. Tissues from 6-10 rats were pooled and homogenized in at least 40 volumes of tris-HCI buffer (0.05 M, pH 7.4) using a Brinkman Polytron (setting 5 for 20 seconds). This homogenate was centrifuged (48,000 G for 10 minutes), the pellet resuspended, and the process repeated three more times. Between the second and third washes, the tissue homogenate was incubated for 10 minutes at 37°C. The final pellet was resuspended in 100 volumes of TRIS buffer for use in the binding assay.
Radioligand binding affinity for subtypes of the serotonin receptor was determined by the method of Pedigo, Yamamura, and Nelson, op. cit. […]
Each mixture was incubated for 15 minutes at 37°C and then vacuum filtered through Whatman GF/B filters followed by three 5 mL washes with cold TRIS buffer. Radioactivity was extracted overnight in 3 mL of scintillation liquid and measured by liquid scintillation spectrometry (50% efficiency).
Binding parameters for saturation and drug displacement studies were calculated by Scatchard analysis and from Hill plots, respectively.

[2] = molecular target: T1, 5-HT1A (Rattus norvegicus, UniProt P19327); test: Radioligand binding, tritiated 5-HT, high affinity site (two-site model); details: high affinity site = 5-HT1A, rat frontal cortex
T1 construct: Tissue homogenate (0.5 mL) from rat frontal cortex; from tissue; host or cells: rat frontal cortex (with part of parietal cortex), washed membrane homogenate
T1 sequence (P19327 1-422): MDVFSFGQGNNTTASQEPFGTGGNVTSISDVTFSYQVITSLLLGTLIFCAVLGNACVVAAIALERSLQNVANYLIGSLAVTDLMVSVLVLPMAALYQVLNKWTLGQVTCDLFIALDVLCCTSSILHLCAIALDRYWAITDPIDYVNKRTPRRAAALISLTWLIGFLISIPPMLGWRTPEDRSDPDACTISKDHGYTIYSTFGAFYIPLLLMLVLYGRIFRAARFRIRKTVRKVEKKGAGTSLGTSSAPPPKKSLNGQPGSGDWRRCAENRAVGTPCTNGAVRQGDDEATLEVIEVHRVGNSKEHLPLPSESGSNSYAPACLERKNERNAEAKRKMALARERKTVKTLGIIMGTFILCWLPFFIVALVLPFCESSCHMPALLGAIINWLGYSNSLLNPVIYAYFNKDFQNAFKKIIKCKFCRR

[3] = molecular target: T2, 5-HT, B (Rattus norvegicus, UniProt P28564); test: Radioligand binding, tritiated 5-HT, low affinity site (two-site model); details: low affinity site = 5-HT, rat frontal cortex
T2 construct: Tissue homogenate (0.5 mL) from rat frontal cortex; from tissue; host or cells: rat frontal cortex (with part of parietal cortex), washed membrane homogenate

4-Methoxy-2-(4-(3aα,4a,5,6,7aα-hexahydro-4,7-methano-1H-isoindol-1,3(2H)-dionyl)-butyl)-1,2,3,3a, 8,8a-hexahydroindeno[1,2-c]pyrrole hydrochloride [Example 55]
IC50 [1]: 647 nM
IC50 [2]: 7.21 nM
IC50 [3]: 5490 nM
